Source: US12514843B2, “Biofilm disruption” (QBIOTICS PTY LTD, priority 2019, dated 2026)
Some results were stated once for a whole list of compounds, not compound by compound. At least one structure is not confirmed: it was looked up by name or label, or the drawing left a doubt.

What was measured:
Assay in all cases: Cell membrane permeabilisation of planktonic cells, SYTOX Green Nucleic Acid Stain
E. coli IR57 = format: cell-based, Escherichia coli; conditions: vs untreated control
P. aeruginosa PAO1 = format: cell-based, Pseudomonas aeruginosa; conditions: vs untreated control
S. aureus (1004A; MRSA) = format: cell-based, Staphylococcus aureus; conditions: planktonic MRSA 1004A; vs untreated control

Row | SMILES | concentration showing significant increase in cell permeabilization (E. coli IR57) [µg/mL] | concentration showing significant increase in cell permeabilization (P. aeruginosa PAO1) [µg/mL] | concentration showing significant cell permeabilization (S. aureus (1004A; MRSA)) [µg/mL]
1 | C/C=C(\C)C(=O)O[C@@H]1[C@@H](C)[C@@]2(O)[C@H]([C@@H]3C(C)(C)[C@]13OC(=O)[C@@H](C)CC)[C@@H]1O[C@]1(CO)[C@@H](O)[C@]1(O)C(=O)C(C)=C[C@H]12 [Compound 1, 12-tigloyl-13-(2-methylbutanoyl)-6,7-epoxy-4,5,9,12,13,20-hexahydroxy-1-tiglien-3-one] | ≥ 512 | ≥ 512 | ≥ 32
2 | CCCCCC(=O)OC1C(C)C2(O)C(C3OC3(CO)C(O)C3(O)C(=O)C(C)=CC32)C2C(C)(C)C12OC(=O)CCCCC (stereo not shown) [Compound 4, 12,13-dihexanoyl-6,7-epoxy-4,5,9,12,13,20-hexahydroxy-1-tiglien-3-one] | ≥ 512 | ≥ 512 | ≥ 32
3 | CCC(=O)OC1C(C)C2(O)C(C3OC3(CO)C(O)C3(O)C(=O)C(C)=CC32)C2C(C)(C)C12OC(=O)C(C)CC (stereo not shown) [Compound 6, 12-propanoyl-13-(2-methylbutanoyl)-6,7-epoxy-4,5,9,12,13,20-hexahydroxy-1-tiglien-3-one] |  |  | ≥ 32
